{
  "source": "patent US20110124701A1",
  "about": "“USE OF HDAC INHIBITORS FOR THE TREATMENT OF LYMPHOMAS” (NOVARTIS AG, priority 2006, published 2011)",
  "key": {"HuT78 CTCL cell line": {"test_system": "HuT78 CTCL cell line", "test": "Monolayer growth inhibition assay (MTT/MTS), HuT78", "format": "cell-based", "details": "HUT78 cells", "experimental": "(§1) The antibiotics penicillin 100 units/mL) and streptomycin (100 μg/mL) were added to prevent bacterial contamination and maintained at 37° C. and 5% CO2 environment in a sterile incubator.\n(§2) The MTT is a colorimetric assay to determine the cell proliferation rate. The yellow tetrazolium MTT (3-(4,5-dimethylthiazolyl-2)-2,5-diphenyltetrazolium bromide) is reduced by metabolically active cells, in part by the action of dehydrogenase enzymes, to generate reducing equivalents, such as NADH and NADPH. The resulting intracellular purple formazan can be solubilized and quantified by spectrophotometric means. The signals produced is directly proportional to the cell numbers. Describing the MTT assay in detail, experiments were done using 6-point or 9-point drug titrations in multi-well tissue culture dishes, with outer rows left empty. Cells were suspended in complete media at densities of between 10^3 and 10^4 cell/mL, respectively, and added per well. The appropriate medium (200 μL) was then added. Twenty-four hours later, 10 μL of MTS solution, were added to one plates to determine the activity at the time of compound addition (T0). […] The T0 plate served as a reference for initial activity at the beginning of the experiment.\n(§3) Compound addition began 24 hours after seeding, the same time as the T0 determination. […] The MTS solution was added (as for the T0 plate) and read four hours later. […]"}, "HH CTCL cell line": {"test_system": "HH CTCL cell line", "test": "Monolayer growth inhibition assay (MTT/MTS), HH", "format": "cell-based", "details": "HH cells", "experimental": "as §1, §2, §3"}},
  "note": "At least one read-out could not be matched to a standard name with certainty.",
  "data": [
    {"compound": "Cc1[nH]c2ccccc2c1CCNCc1ccc(/C=C/C(=O)NO)cc1", "note": "[Compound III, N-hydroxy-3-[4-[[[2-(2-methyl-1H-indol-3-yl)-ethyl]-amino]methyl]phenyl]-2E-2-propenamide]", "values": [
      {"measurement": "sensitivity to induced cell death (LD50) in words", "setting": "HuT78 CTCL cell line", "value": "low nanomolar LD50"},
      {"measurement": "sensitivity to induced cell death (LD50) in words", "setting": "HH CTCL cell line", "value": "low nanomolar LD50"}
    ]}
  ]
}
